For the assay, the system named is hippocampal θ rhythm, anesthetized male Wistar rats. Nature of the assay: Theta modulation in dorsal hippocampus of anesthetized rats in combination with donepezil. The class given is in vivo. As to conditions: donepezil alone 0.3 mg/kg, i.v., anesthetized rat.

As to `COc1cc2c(cc1OC)C(=O)C(CC1CCN(Cc3ccccc3)CC1)C2` (stereo not shown) [donepezil, reference compound], the “hippocampal θ power” value is “moderate increase”.

For the origin of these results see patent publication US11278530B2, “Polycyclic amides as muscarinic M1 receptor positive allosteric modulators” (SUVEN LIFE SCIENCES LIMITED, priority 2017, dated 2022).
